Source: patent publication US20170252367A1, “PHARMACEUTICAL COMPOSITIONS AND METHODS RELATING TO INHIBITING FIBROUS ADHESIONS OR INFLAMMATORY DISEASE USING LOW SULPHATE FUCANS” (ARC Medical Devices, Inc., priority 2004, published 2017)
For at least one compound, name, drawing or mass did not settle the structure. Some of these results come from one statement about several compounds together.

System: fibrous adhesions between the caecum and the sidewall
Test: Rat caecal-sidewall surgical adhesion model, drug loaded hyaluronic acid film (Example 1)
Type: in vivo
Details: for average Total Adhesion Value (strength×area; TAV) versus sodium hyaluronate film alone: drug-loaded sodium hyaluronate film, loadings as in the 2nd table, % of the value of hyaluronate film alone, one week after surgery, FIGS. 1-5

Compound	average Total Adhesion Value (strength×area; TAV) versus sodium hyaluronate film alone	reduction in adhesion score versus control, one-tailed Student's t-test (p<0.05) (5% w/w in HA film)
O.O.O=c1c(O)c(-c2ccc(O)c(O)c2)oc2cc(O)cc(O)c12 [quercetin, Quercetin Dihydrate]	less than 90%	–
CN(C)[C@@H]1C(O)=C(C(N)=O)C(=O)[C@@]2(O)C(O)=C3C(=O)c4c(O)cccc4[C@@](C)(O)[C@H]3C[C@@H]12 [tetracycline, Tetracycline]	less than 75%	statistically significant
Streptokinase	less than 75%	–
